Values quoted from earlier work as cited in patent US20220265792A1, “METHODS FOR TREATING SOLID TUMORS” (Breakbio Corp., priority 2019, published 2022).
For at least one compound, name, drawing or mass did not settle the structure.

System: colorectal cancer

For `CNC(=O)c1ccccc1Sc1ccc2c(/C=C/c3ccccn3)n[nH]c2c1` [Axitinib], the “clinical effect as monotherapy” value is given as “modest clinical effect”.
